One assay has as its target T1, RANKL (human) (UniProt O14788).
T1 sequence (looked up): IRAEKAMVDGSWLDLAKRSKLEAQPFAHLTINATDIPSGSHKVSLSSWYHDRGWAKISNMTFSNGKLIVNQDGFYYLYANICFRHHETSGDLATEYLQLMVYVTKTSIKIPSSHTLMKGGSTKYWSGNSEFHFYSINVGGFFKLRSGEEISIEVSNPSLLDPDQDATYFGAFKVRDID
The assay is described as follows: ELISA, RANKL coated on the plate, purified monomeric FLAG-tagged protein from E. coli in doubling dilutions, anti-FLAG detection, A450nm. For orientation: ELISA stands for enzyme-linked immunosorbent assay.

Sequences of proteins named here, by UniProt entry; tags and fusion partners are left off. Residues count along the entry.
UniProt P50591, residues 114-281: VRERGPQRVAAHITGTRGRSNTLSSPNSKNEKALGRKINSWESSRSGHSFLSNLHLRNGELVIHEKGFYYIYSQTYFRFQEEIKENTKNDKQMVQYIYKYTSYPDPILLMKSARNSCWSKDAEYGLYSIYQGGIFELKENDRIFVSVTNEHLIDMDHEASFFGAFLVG

The next assay addresses TRAIL (human) (UniProt P50591). The assay is described as follows: ELISA, TRAIL coated on the plate, purified monomeric FLAG-tagged protein from E. coli in doubling dilutions, anti-FLAG detection, A450nm.

Results are given in words; binding and its absence hold for the method and conditions named. Some results given as binding are weak or reduced against the parent protein; the word gives no strength.

B1: N102D (receptor, not shown: small tags and cut ends)
chain: ETFPPKYLHYDEETSHQLLCDKCPPGTYLKQHCTAKWKTVCAPCPDHYYTDSWHTSDECLYCSPVCKELQYVKQECNRTHDRVCECKEGRYLEIEFCLKHRSCPPGFGVVQAGTPERNTVCKRCPDGFFSNETSSKAPCRKHTNCSVFGLLLTQKGNATHDNICSGNSESTQK
In the case of B1, the binding entry with RANKL (human) and with TRAIL (human) was “binds” in each case.

B2: I115T,F128V (receptor, not shown: small tags and cut ends)
chain: ETFPPKYLHYDEETSHQLLCDKCPPGTYLKQHCTAKWKTVCAPCPDHYYTDSWHTSDECLYCSPVCKELQYVKQECNRTHNRVCECKEGRYLETEFCLKHRSCPPGVGVVQAGTPERNTVCKRCPDGFFSNETSSKAPCRKHTNCSVFGLLLTQKGNATHDNICSGNSESTQK
Turning to B2, the binding entry with RANKL (human) is recorded as “binds”.

B3: WT (receptor, not shown: small tags and cut ends)
chain: ETFPPKYLHYDEETSHQLLCDKCPPGTYLKQHCTAKWKTVCAPCPDHYYTDSWHTSDECLYCSPVCKELQYVKQECNRTHNRVCECKEGRYLEIEFCLKHRSCPPGFGVVQAGTPERNTVCKRCPDGFFSNETSSKAPCRKHTNCSVFGLLLTQKGNATHDNICSGNSESTQK
For B3, the binding result with RANKL (human) is “binds”.

B4: I115T,K51R,S167G (receptor, not shown: small tags and cut ends)
chain: ETFPPKYLHYDEETSHQLLCDKCPPGTYLRQHCTAKWKTVCAPCPDHYYTDSWHTSDECLYCSPVCKELQYVKQECNRTHNRVCECKEGRYLETEFCLKHRSCPPGFGVVQAGTPERNTVCKRCPDGFFSNETSSKAPCRKHTNCGVFGLLLTQKGNATHDNICSGNSESTQK
Turning to B4, in the assay with RANKL (human), the binding result is “binds”.

B5: R122G (receptor, not shown: small tags and cut ends)
chain: ETFPPKYLHYDEETSHQLLCDKCPPGTYLKQHCTAKWKTVCAPCPDHYYTDSWHTSDECLYCSPVCKELQYVKQECNRTHNRVCECKEGRYLEIEFCLKHGSCPPGFGVVQAGTPERNTVCKRCPDGFFSNETSSKAPCRKHTNCSVFGLLLTQKGNATHDNICSGNSESTQK
For the molecule B5, the binding result in the assay with RANKL (human) and in the assay with TRAIL (human) was “binds” each time.

B6: I115T,K51R (receptor, not shown: small tags and cut ends)
chain: ETFPPKYLHYDEETSHQLLCDKCPPGTYLRQHCTAKWKTVCAPCPDHYYTDSWHTSDECLYCSPVCKELQYVKQECNRTHNRVCECKEGRYLETEFCLKHRSCPPGFGVVQAGTPERNTVCKRCPDGFFSNETSSKAPCRKHTNCSVFGLLLTQKGNATHDNICSGNSESTQK
B6: the binding entry with RANKL (human) is “binds”.

The record behind these values is patent publication US20060189528A1.
